# According to article PMC5996148:
# The list shows a part of the results.
# Tests used:
# Assay in all cases: protein microarray (ProtoArray v5.0), streptavidin-Alexa Fluor 647
# Details in all cases: 3'-biotin; 20 mM Tris (pH 7.5), 5 mM MgCl2, 100 mM KCl, 0.1% Tween-20, A/T-rich and random oligonucleotide blockers; temperature not stated; high values mean tight binding
# PKIB (human) = test system: PKIB (human)
# PKNOX1 (human) = test system: PKNOX1 (human)
# PLAT (human) = test system: PLAT (human)
# PLS3 (human) = test system: PLS3 (human)
# PLXDC1 (human) = test system: PLXDC1 (human)
# PMCH (human) = test system: PMCH (human)
# [1] = test system: PNMA-like protein 1 (human)
# POLE3 (human) = test system: POLE3 (human)
# POLR2I (human) = test system: POLR2I (human)
# PPM1A (human) = test system: PPM1A (human)
sequence,measurement,setting,value
GGTGACAGGGGTATGGGGAGGGG [G4-2 biotinylated (Ct1)],binding signal,PKIB (human),-0.393 z-score
same,binding signal,PKNOX1 (human),-0.38 z-score
same,binding signal,PLAT (human),-0.372 z-score
same,binding signal,PLS3 (human),-0.383 z-score
same,binding signal,PLXDC1 (human),-0.382 z-score
same,binding signal,PMCH (human),-0.37 z-score
same,binding signal,[1],3.01 z-score
same,binding signal,POLE3 (human),-0.394 z-score
same,binding signal,POLR2I (human),-0.395 z-score
same,binding signal,PPM1A (human),-0.376 z-score
